Laboratory results reported in publication PMC7125119, “An oncopeptide regulates m6A recognition by the m6A reader IGF2BP1 and tumorigenesis”.
These are yes or no findings as the source states them, for the method shown. Binding seen in cells or lysates may run through a third protein. Some results given as binding are weak or reduced against the parent protein; the word gives no strength. Blank lines part the entries; values can stand above or below the molecule they belong to.

The chains behind the UniProt entries cited, without tags or fusion partners.
UniProt Q9NZI8: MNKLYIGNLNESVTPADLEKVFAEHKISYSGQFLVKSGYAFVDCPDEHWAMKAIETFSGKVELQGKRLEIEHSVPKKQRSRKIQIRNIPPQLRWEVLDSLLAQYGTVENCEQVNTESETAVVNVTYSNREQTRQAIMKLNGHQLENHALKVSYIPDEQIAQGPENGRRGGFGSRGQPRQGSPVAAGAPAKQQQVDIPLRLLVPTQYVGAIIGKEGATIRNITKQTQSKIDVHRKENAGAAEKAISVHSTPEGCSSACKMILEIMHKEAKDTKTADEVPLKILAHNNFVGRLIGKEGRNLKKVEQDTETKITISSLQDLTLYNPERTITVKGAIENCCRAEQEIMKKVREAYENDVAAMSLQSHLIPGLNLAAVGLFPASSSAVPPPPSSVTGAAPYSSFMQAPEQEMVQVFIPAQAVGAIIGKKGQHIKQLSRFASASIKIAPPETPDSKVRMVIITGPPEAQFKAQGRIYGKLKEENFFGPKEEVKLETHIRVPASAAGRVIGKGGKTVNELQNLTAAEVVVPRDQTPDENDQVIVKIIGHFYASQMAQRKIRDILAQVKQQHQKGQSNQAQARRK
UniProt P11940: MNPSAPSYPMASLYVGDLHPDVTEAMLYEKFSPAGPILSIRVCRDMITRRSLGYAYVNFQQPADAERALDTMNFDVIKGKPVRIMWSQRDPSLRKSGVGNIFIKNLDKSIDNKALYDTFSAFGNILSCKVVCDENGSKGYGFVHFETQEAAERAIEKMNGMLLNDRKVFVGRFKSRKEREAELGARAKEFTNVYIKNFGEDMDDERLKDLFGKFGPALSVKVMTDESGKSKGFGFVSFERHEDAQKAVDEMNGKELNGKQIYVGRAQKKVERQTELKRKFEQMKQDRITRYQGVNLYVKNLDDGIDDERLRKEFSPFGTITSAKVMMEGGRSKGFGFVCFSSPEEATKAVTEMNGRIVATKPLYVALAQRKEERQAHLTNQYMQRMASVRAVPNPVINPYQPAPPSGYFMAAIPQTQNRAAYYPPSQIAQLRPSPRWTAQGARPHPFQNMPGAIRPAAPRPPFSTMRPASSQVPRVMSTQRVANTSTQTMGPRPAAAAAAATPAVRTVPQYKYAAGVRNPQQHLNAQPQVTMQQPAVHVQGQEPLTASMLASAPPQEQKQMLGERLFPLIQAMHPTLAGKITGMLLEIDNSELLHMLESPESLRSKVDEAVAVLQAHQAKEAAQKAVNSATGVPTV

Biological target: IGF2BP1 (as used in Supplementary Fig. 10a, b) (UniProt Q9NZI8)
Assay: co-IP; Supplementary Fig. 10a, b: interaction of IGF2BP1 with RNA stabilizers with RBRP or RBRP G19A expressed; RNA-independent; set-up not shown

- binding: binds
Molecule: PABPC1 (from UniProt P11940 1-636)

- binding: binds
B1: MATR3 (protein, UniProt P43243 1-847)
chain: MSKSFQQSSLSRDSQGHGRDLSAAGIGLLAAATQSLSMPASLGRMNQGTARLASLMNLGMSSSLNQQGAHSALSSASTSSHNLQSIFNIGSRGPLPLSSQHRGDADQASNILASFGLSARDLDELSRYPEDKITPENLPQILLQLKRRRTEEGPTLSYGRDGRSATREPPYRVPRDDWEEKRHFRRDSFDDRGPSLNPVLDYDHGSRSQESGYYDRMDYEDDRLRDGERCRDDSFFGETSHNYHKFDSEYERMGRGPGPLQERSLFEKKRGAPPSSNIEDFHGLLPKGYPHLCSICDLPVHSNKEWSQHINGASHSRRCQLLLEIYPEWNPDNDTGHTMGDPFMLQQSTNPAPGILGPPPPSFHLGGPAVGPRGNLGAGNGNLQGPRHMQKGRVETSRVVHIMDFQRGKNLRYQLLQLVEPFGVISNHLILNKINEAFIEMATTEDAQAAVDYYTTTPALVFGKPVRVHLSQKYKRIKKPEGKPDQKFDQKQELGRVIHLSNLPHSGYSDSAVLKLAEPYGKIKNYILMRMKSQAFIEMETREDAMAMVDHCLKKALWFQGRCVKVDLSEKYKKLVLRIPNRGIDLLKKDKSRKRSYSPDGKESPSDKKSKTDGSQKTESSTEGKEQEEKSGEDGEKDTKDDQTEQEPNMLLESEDELLVDEEEAAALLESGSSVGDETDLANLGDVASDGKKEPSDKAVKKDGSASAAAKKKLKKVDKIEELDQENEAALENGIKNEENTEPGAESSENADDPNKDTSENADGQSDENKDDYTIPDEYRIGPYQPNVPVGIDYVIPKTGFYCKLCSLFYTNEEVAKNTHCSSLPHYQKLKKFLNKLAEERRQKKET
